Measurements reported in PubChem BioAssay AID1508588 (Peter MacCallum Cancer Centre, 2020).
Purpose: 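Genome-wide search for knock-downs that heighten vemurafenib action in melanoma cells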 (primary screen). Cells: human WM266.4 melanoma cells (BRAF V600 mutant). Reagents: siRNA pool against human genes, 40 nM. Duration: 96 h from transfection to read-out. Conditions: vemurafenib 300 nM (about IC25), added 48 h after transfection, for 48 h; comparison arm got DMSO vehicle only. Measurement: 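Ratios to non-targeting siRNA for cell gain, counted as DAPI nuclei after minus before drug and averaged over two replicates, and for absorbance-read medium lactate per cell; both binned into fold-change classes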. Reading the numbers: cell gain with vemurafenib: higher = more cell gain than with non-targeting siRNA; lactate per cell with vemurafenib: higher = more lactate made per cell. Active means: 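Enhancement is called by pairing each knock-down's vehicle-arm and drug-arm fold-change classes for viability or glycolysis; which class combinations qualify is not given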. Meaning of the calls: active = enhances vemurafenib effect; inactive = no enhancement seen.
In all, the deposit lists about 18,000 reagents; below is a random part of them. Over the whole deposit, 790 (4.4%) got an active call. 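Calls rest on a combination of fold-change classes in drug and vehicle arms, not all shown here.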 A reagent listed more than once was tested more than once; the source does not tell the runs apart.

For CDH23 (GeneID 64072), the values are cell gain with vemurafenib 0.34; lactate per cell with vemurafenib 1.29; inactive. Against TMIGD1 (GeneID 388364) the deposit lists cell gain with vemurafenib 0.29; lactate per cell with vemurafenib 2.46; inactive. Knock-down of MTBP (GeneID 27085) gave: cell gain with vemurafenib 0.19; lactate per cell with vemurafenib 1.69; inactive. Knock-down of AMIGO1 (GeneID 57463) gave: cell gain with vemurafenib 0.91; lactate per cell with vemurafenib 0.93; inactive. Against PTS (GeneID 5805) the deposit lists cell gain with vemurafenib 0.91; lactate per cell with vemurafenib 0.27; inactive. With knock-down of VDAC1 (GeneID 7416), the record shows cell gain with vemurafenib 0.88; lactate per cell with vemurafenib 0.4; inactive.

For ANAPC13 (GeneID 25847) the deposit lists cell gain with vemurafenib 0.73; lactate per cell with vemurafenib 0.84; inactive. With knock-down of GARIN1B (GeneID 84691), the record shows cell gain with vemurafenib 0.99; lactate per cell with vemurafenib 1.25; inactive. Silencing of OR51E1 (GeneID 143503) resulted in: cell gain with vemurafenib 0.78; lactate per cell with vemurafenib 1.28; inactive. Knock-down of ATF7IP2 (GeneID 80063) resulted in: cell gain with vemurafenib -0.02; lactate per cell with vemurafenib 0.19; active.

Entries listed so far whose target name begins with A or a (3):
AMIGO1 (GeneID 57463) — cell gain with vemurafenib = 0.91; lactate per cell with vemurafenib = 0.93; Outcome = inactive
ANAPC13 (GeneID 25847) — cell gain with vemurafenib = 0.73; lactate per cell with vemurafenib = 0.84; Outcome = inactive
ATF7IP2 (GeneID 80063) — cell gain with vemurafenib = -0.02; lactate per cell with vemurafenib = 0.19; Outcome = active

The list goes on:
After knock-down of SMAD7 (GeneID 4092) the results were cell gain with vemurafenib 1.13; lactate per cell with vemurafenib 0.96; inactive. After knock-down of CEP44 (GeneID 80817) the results were cell gain with vemurafenib 0.38; lactate per cell with vemurafenib 1.34; inactive. Depletion of ZFAND6 (GeneID 54469) came out at: cell gain with vemurafenib 1; lactate per cell with vemurafenib 0.94; inactive. After knock-down of EZH1 (GeneID 2145), the screen gave cell gain with vemurafenib 0.36; lactate per cell with vemurafenib 1.84; inactive. With knock-down of URM1 (GeneID 81605) the results were cell gain with vemurafenib 0.5; lactate per cell with vemurafenib 0.79; inactive. After knock-down of EIF4E3 (GeneID 317649) the results were cell gain with vemurafenib 0.59; lactate per cell with vemurafenib 0.98; inactive.

For CTNNA1 (GeneID 1495), the entry reads cell gain with vemurafenib 0.27; lactate per cell with vemurafenib 0.82; inactive. For BCL9 (GeneID 607), the entry reads cell gain with vemurafenib 0.24; lactate per cell with vemurafenib 0.86; inactive. Silencing of STXBP5 (GeneID 134957) came out at: cell gain with vemurafenib 0.84; lactate per cell with vemurafenib 0.49; inactive. For OMG (GeneID 4974), the entry reads cell gain with vemurafenib 0.79; lactate per cell with vemurafenib 0.58; inactive. Depletion of SMURF1 (GeneID 57154) gave: cell gain with vemurafenib 0.79; lactate per cell with vemurafenib 0.54; inactive. Knock-down of ZNF250 (GeneID 58500) gave: cell gain with vemurafenib 0.65; lactate per cell with vemurafenib 0.67; inactive.

Knock-down of PRSS2 (GeneID 5645) resulted in: cell gain with vemurafenib 0.94; lactate per cell with vemurafenib 0.74; inactive. Depletion of ICA1L (GeneID 130026) resulted in: cell gain with vemurafenib 0.41; lactate per cell with vemurafenib 0.96; inactive. Silencing of HTR3E (GeneID 285242) resulted in: cell gain with vemurafenib 0.48; lactate per cell with vemurafenib 1.05; inactive. Depletion of HTR3E (GeneID 285242) resulted in: cell gain with vemurafenib 0.61; lactate per cell with vemurafenib 1.25; inactive. After knock-down of HTR3E (GeneID 285242) the results were cell gain with vemurafenib 0.74; lactate per cell with vemurafenib 1.08; inactive.
